Laboratory results: PubChem BioAssay AID1053208 (Peter MacCallum Cancer Centre, 2014)
Shown is a random part of about 17,000 reagents. Of all reagents, 788 (4.7%) were called active. 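Calls rest on z-score classes alone; an extra cut-off of viability at most 70% of control was not applied to them.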 Unmarked entries are inactive.

- Aim: 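Genes whose silencing cuts survival of bone tumour cells only with doxorubicin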 (primary screen)
- System: mouse osteosarcoma cells, early-passage culture from an engineered mouse model of fibroblastic bone tumour
- Reagent: siRNA pool against mouse genes, 40 nM
- Time to read-out: about 120 h (48 h before drug, then 72 h with drug)
- Conditions: doxorubicin 100 nM for 72 h, roughly 30-40% inhibitory dose
- Measured: 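Viability read as ATP luminescence after 72 h of 100 nM doxorubicin or none, duplicate wells averaged, scaled to non-targeting siRNA, then expressed as robust z-scores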
- Reading the numbers: viability z-score with doxorubicin and doxorubicin viability vs non-targeting: higher = more viable cells under doxorubicin; viability z-score without drug: higher = more viable cells with knock-down alone; z-score of drug to no-drug ratio: higher = less drug sensitisation by knock-down
- Active means: 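a pool counts as active when its viability z-score with doxorubicin is -2 or below and its z-score without drug lies between -2 and 2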

Gene,combined z-score class,viability z-score with doxorubicin,viability z-score without drug,z-score of drug to no-drug ratio,doxorubicin viability vs non-targeting
Cd48 (CD48 antigen),no change with or without drug,-1.24,-0.51,-0.9,0.83
Gopc (golgi associated PDZ and coiled-coil motif containing),no change with or without drug,-0.22,1.18,-0.9,0.92
Or7e174 (olfactory receptor family 7 subfamily E member 174),no change with or without drug,0.45,0.17,0.45,0.98
"Cyp27a1 (cytochrome P450, family 27, subfamily a, polypeptide 1)",no change with or without drug,0.45,0.84,0,0.98
Ndufs1 (NADH:ubiquinone oxidoreductase core subunit S1),no change with or without drug,0.67,0.51,0.45,1
Ftsj3 (FtsJ RNA 2'-O-methyltransferase 3),no change with or without drug,0,0.67,-0.34,0.94
Tmc3 (transmembrane channel-like gene family 3),no change with or without drug,0.79,1.52,-0.11,1.01
Mob3c (MOB kinase activator 3C),low cell count with doxorubicin only (active),-2.7,-1.69,-1.8,0.7
"Prkcd (protein kinase C, delta)",no change with or without drug,1.8,1.52,0.9,1.1
Slc11a1,no change with or without drug,-0.22,0.84,-0.67,0.92
Capsl (calcyphosine-like),no change with or without drug,0.56,-0.34,0.9,0.99
Sln (sarcolipin),low cell count with doxorubicin only (active),-2.7,-1.18,-2.02,0.7
Ptgfrn (prostaglandin F2 receptor negative regulator),no change with or without drug,-0.22,0,-0.11,0.92
Fbxl7 (F-box and leucine-rich repeat protein 7),no change with or without drug,-0.67,0.84,-1.12,0.88
1700019M22Rik (RIKEN cDNA 1700019M22 gene),no change with or without drug,-0.45,0.84,-0.9,0.9
Tcap (titin-cap),no change with or without drug,-0.22,0.17,-0.22,0.92
Lrrc18 (leucine rich repeat containing 18),high cell count without drug only,0.9,3.54,-1.12,1.02
C130073F10Rik (RIKEN cDNA C130073F10 gene),no change with or without drug,-0.45,-1.01,0.34,0.9
"Ppp1r12a (protein phosphatase 1, regulatory subunit 12A)",no change with or without drug,0.56,0.17,0.56,0.99
B630019K06Rik (RIKEN cDNA B630019K06 gene),no change with or without drug,-1.12,-1.18,-0.34,0.84
"Fpr-rs3 (formyl peptide receptor, related sequence 3)",no change with or without drug,-0.22,1.18,-0.9,0.92
Or8k3 (olfactory receptor family 8 subfamily K member 3),low cell count without drug only,-1.24,-2.53,0.67,0.83
Gbx1 (gastrulation brain homeobox 1),no change with or without drug,0.22,0,0.34,0.96
Ehbp1 (EH domain binding protein 1),no change with or without drug,0,-0.51,0.45,0.94
"Gria4 (glutamate receptor, ionotropic, AMPA4 (alpha 4))",no change with or without drug,-0.67,-1.85,0.79,0.88
Myct1 (myc target 1),no change with or without drug,0.45,0.51,0.22,0.98
Gpr63 (G protein-coupled receptor 63),no change with or without drug,0,0.17,0,0.94
Hspb3 (heat shock protein family B (small) member 3),no change with or without drug,0.9,0.17,0.9,1.02
Armc8 (armadillo repeat containing 8),high cell count without drug only,-0.79,2.53,-2.14,0.87
Frmd4a (FERM domain containing 4A),no change with or without drug,-0.34,-0.51,0.11,0.91
Guca1a (guanylate cyclase activator 1a (retina)),no change with or without drug,1.57,0.84,1.12,1.08
"Ppp3ca (protein phosphatase 3, catalytic subunit, alpha isoform)",no change with or without drug,1.01,-0.51,1.57,1.03
Bptf (bromodomain PHD finger transcription factor),no change with or without drug,0.56,1.01,0,0.99
Or1a1b (olfactory receptor family 1 subfamily A member 1B),no change with or without drug,-1.01,-0.51,-0.67,0.85
"Gsta1 (glutathione S-transferase, alpha 1 (Ya))",no change with or without drug,-1.8,0.51,-2.02,0.78
Or51e2 (olfactory receptor family 51 subfamily E member 2),no change with or without drug,-0.56,-0.51,-0.11,0.89
Unc45b (unc-45 myosin chaperone B),no change with or without drug,-0.56,-0.84,0.11,0.89
Cfap410 (cilia and flagella associated protein 410),low cell count with doxorubicin only (active),-2.47,0.84,-2.92,0.72
Rps18 (ribosomal protein S18),low cell count with and without drug,-4.72,-4.22,-2.7,0.52
Osbpl5 (oxysterol binding protein-like 5),no change with or without drug,-1.12,-0.67,-0.67,0.84
Dnai4 (dynein axonemal intermediate chain 4),no change with or without drug,-0.9,-0.51,-0.56,0.86
Calm1 (calmodulin 1),low cell count with and without drug,-2.25,-2.19,-0.9,0.74
Slc22a2,no change with or without drug,-1.12,0.17,-1.12,0.84
"Cyp2b13 (cytochrome P450, family 2, subfamily b, polypeptide 13)",no change with or without drug,0.22,0.17,0.22,0.96
Sipa1l3 (signal-induced proliferation-associated 1 like 3),no change with or without drug,1.57,0.84,1.12,1.08
Or10ak11 (olfactory receptor family 10 subfamily AK member 11),no change with or without drug,-0.22,0.51,-0.45,0.92
Dnajb1 (DnaJ heat shock protein family (Hsp40) member B1),no change with or without drug,-0.45,0.67,-0.79,0.9
"Tcf7l2 (transcription factor 7 like 2, T cell specific, HMG box)",high cell count without drug only,0.9,3.04,-0.9,1.02
Maob (monoamine oxidase B),no change with or without drug,0.9,-1.52,2.36,1.02
Cog2 (component of oligomeric golgi complex 2),high cell count with doxorubicin only,2.59,1.35,1.8,1.17

Part of the list above, reduced to “viability z-score without drug”.
Capsl (calcyphosine-like) = -0.34
Sln (sarcolipin) = -1.18 (active)
Ptgfrn (prostaglandin F2 receptor negative regulator) = 0
Fbxl7 (F-box and leucine-rich repeat protein 7) = 0.84
1700019M22Rik (RIKEN cDNA 1700019M22 gene) = 0.84
Tcap (titin-cap) = 0.17
Lrrc18 (leucine rich repeat containing 18) = 3.54
C130073F10Rik (RIKEN cDNA C130073F10 gene) = -1.01
